# Results published in PubChem BioAssay AID248 (DTP/NCI, 2004).
# The list is a part of this screen's results and no random one: it is rich in T/C values a quarter to a half above the control, in often repeated tests (any T/C) and in doses without a T/C. Other doses and runs of a compound stand elsewhere. T/C: endpoint of the treated group in % of that of the vehicle group. Some doses have a count of surviving animals in place of a T/C: the source holds a T/C of zero for them, seemingly a mark for toxic or unscored doses. Some survivor counts are full or nearly so, which does not show that the dose was tolerated: the source hardly ever lists a survival T/C far under the control, and the zero likely stands for such cases as well. Survivors were counted at the toxicity check, usually on the fifth day, unless a day is given; later deaths do not show. Schedule codes are those of the source, taken here to give the interval after Q, in days (D) or hours (H), and the number of doses after X. Some entries were tested several times; the values are given in rising order. Some schedule codes hold Z or #, which are not explained here. Some structures stand for samples that the source files as different forms (salt, stereo form or complex); doses refer to the form tested. For survival time, the PubChem record calls one and a half times the control and up active, and a quarter to a half above the control has no call in these data; cut-offs in other NCI protocols can differ. Some T/C values are followed by the survivors on the day toxicity was checked, most often the fifth; where none is given, no animal had died by that day.
# Tested on: L1210 leukemia ip in BDF1 mice, survival T/C
# Assay: NCI In Vivo Anticancer Drug Screen. Data for tumor model L1210 Leukemia (intraperitoneal) in B6D2F1 (BDF1) mice
# Details: T/C endpoint: mean survival time, higher T/C = longer survival
# [1] = dose: 100.0 mg/kg/injection, schedule: Q04DX003 (ip), vehicle: saline
# [2] = dose: 200.0 mg/kg/injection, schedule: Q04DX003 (ip), vehicle: saline
# [3] = dose: 400.0 mg/kg/injection, schedule: Q04DX003 (ip), vehicle: saline
# [4] = dose: 200.0 mg/kg/injection, schedule: Q01DX009 (ip), vehicle: saline with Tween-80
# [5] = dose: 300.0 mg/kg/injection, schedule: Q01DX001 (ip), vehicle: saline
# [6] = dose: 200.0 mg/kg/injection, schedule: Q01DX009 (ip), vehicle: Klucel (hydroxypropylcellulose) (HPC)
# [7] = dose: 400.0 mg/kg/injection, schedule: Q01DX009 (ip), vehicle: saline with Tween-80
# [8] = dose: 200.0 mg/kg/injection, schedule: Q01DX001 (ip), vehicle: saline
# [9] = dose: 100.0 mg/kg/injection, schedule: Q04DX003 (ip), vehicle: saline with Tween-80
# [10] = dose: 200.0 mg/kg/injection, schedule: Q04DX003 (ip), vehicle: saline with Tween-80
# [11] = dose: 400.0 mg/kg/injection, schedule: Q04DX003 (ip), vehicle: saline with Tween-80
# [12] = dose: 400.0 mg/kg/injection, schedule: Q01DX009 (ip), vehicle: Klucel (hydroxypropylcellulose) (HPC)
# [13] = dose: 100.0 mg/kg/injection, schedule: Q01DX009 (ip), vehicle: Klucel (hydroxypropylcellulose) (HPC)
# [14] = dose: 25.0 mg/kg/injection, schedule: Q01DX009 (ip), vehicle: saline
# [15] = dose: 100.0 mg/kg/injection, schedule: Q01DX009 (ip), vehicle: saline
# [16] = dose: 100.0 mg/kg/injection, schedule: Q01DX005 (ip), vehicle: saline
smiles,measurement,setting,value
C[N+]1=C2CCCCCC2=C(N)CC1,survivor count,[1],3 of 6
same,survivor count,[2],0 of 6
same,survivor count,[3],0 of 6
O=c1oc(-c2ccccc2Cl)nc2cc(Cl)ccc12,survivor count,[4],3 of 6
CSC(=N)N(C)Cc1ccccc1,survivor count,"dose: 150.0 mg/kg/injection, schedule: Q01DX001 (ip), vehicle: saline",0 of 6
same,survivor count,[5],0 of 6
COC(=O)C1=CCCN(C)C1,survivor count,[1],2 of 4 and 6 of 6
same,survivor count,[2],1 of 6 and 2 of 4
same,survivor count,[3],0 of 4 and 1 of 6
CS(=O)(=O)OCCCCCCCCCOS(C)(=O)=O,survivor count,[6],2 of 6
same,survivor count,"dose: 300.0 mg/kg/injection, schedule: Q01DX001 (ip), vehicle: other",0 of 6
NC(C(=O)c1ccccc1)c1ccccc1.[Cl][Sn][Cl] (stereo unspecified),survivor count,[5],1 of 6
O=NN(CCCl)C(=O)NC1[C@H](O)CCC[C@@H]1O (stereo partly specified),T/C,"dose: 33.0 mg/kg/injection, schedule: Q01DX001 (ip), vehicle: saline, evaluated on day 30",145 % of control
same,T/C,"dose: 33.0 mg/kg/injection, schedule: Q01DX001 (ip), vehicle: saline, evaluated on day 45",134 % of control [8 of 10 alive]
same,survivor count,"dose: 50.0 mg/kg/injection, schedule: Q01DX001 (ip), vehicle: saline",10 of 10
same,survivor count,"dose: 75.0 mg/kg/injection, schedule: Q01DX001 (ip), vehicle: saline",9 of 10
same,survivor count,"dose: 112.0 mg/kg/injection, schedule: Q01DX001 (ip), vehicle: saline",8 of 10
same,survivor count,"dose: 168.0 mg/kg/injection, schedule: Q01DX001 (ip), vehicle: saline",1 of 10
CCCCCCP(=O)(O)O,survivor count,[4],0 of 6
same,survivor count,[7],0 of 6
COc1ccc2cc[n+](C)c(Cc3ccc(OC)c(Oc4ccc(Cc5c(OC)ccc6cc[n+](C)cc56)cc4)c3)c2c1,survivor count,"dose: 100.0 mg/kg/injection, schedule: Q04DX003 (ip), vehicle: other",0 of 3
same,survivor count,"dose: 200.0 mg/kg/injection, schedule: Q04DX003 (ip), vehicle: other",0 of 3
same,survivor count,"dose: 400.0 mg/kg/injection, schedule: Q04DX003 (ip), vehicle: other",0 of 3
O=C(CCCCC(=O)Nc1cc(C2=NCCN2)cc(C2N=CCN2)c1)Nc1cc(C2=NCCN2)cc(C2=NCCN2)c1 (stereo unspecified),survivor count,"dose: 20.0 mg/kg/injection, schedule: Q01DX Z (ip), vehicle: carboxymethylcellulose (CMC)",1 of 6
CN(C)CCSCCN1c2ccccc2Sc2ccc(Cl)cc21,survivor count,[2],1 of 6
same,survivor count,[3],0 of 6
O=C(O)C1(NO)CCCC1,T/C,[8],126 % of control
CCOC(=O)c1ccc(NC(=O)Oc2ccc3ccccc3c2)cc1,survivor count,"dose: 100.0 mg/kg/injection, schedule: Q01DX001 (ip), vehicle: saline with Tween-80",6 of 6
same,survivor count,[9],6 of 6
same,survivor count,[10],6 of 6
same,survivor count,[11],6 of 6
OCCCC1CCCCN1 (stereo unspecified),survivor count,"dose: 200.0 mg/kg/injection, schedule: Q04DX003 (ip), vehicle: acetone",2 of 6
same,survivor count,"dose: 400.0 mg/kg/injection, schedule: Q04DX003 (ip), vehicle: acetone",0 of 6
O=C1NC(c2ccccc2)(c2ccccc2)C(=O)N1SC(Cl)(Cl)Cl,survivor count,"dose: 100.0 mg/kg/injection, schedule: Q04DX002 (ip), vehicle: Klucel (hydroxypropylcellulose) (HPC)",1 of 3 and 2 of 3
same,survivor count,"dose: 200.0 mg/kg/injection, schedule: Q04DX002 (ip), vehicle: Klucel (hydroxypropylcellulose) (HPC)",0 of 3
same,survivor count,"dose: 400.0 mg/kg/injection, schedule: Q04DX002 (ip), vehicle: Klucel (hydroxypropylcellulose) (HPC)",0 of 3
CCCCCCCCCCCCNC(=O)C[n+]1ccc(C(N)=O)cc1,survivor count,[2],0 of 6
same,survivor count,[3],1 of 6
CCN(CC)c1ccc(SC#N)cc1,survivor count,[8],0 of 4
same,survivor count,"dose: 400.0 mg/kg/injection, schedule: Q01DX001 (ip), vehicle: saline",0 of 4
Cc1ccc(/C=N/N=C(N)N)cc1,survivor count,"dose: 120.0 mg/kg/injection, schedule: Q01DX Z (ip), vehicle: saline",0 of 6
O=C(O)c1cc(N=C2C=CC(=C(c3ccccc3)c3ccc(Nc4ccc(Cl)c(C(=O)O)c4)cc3)C=C2)ccc1Cl,survivor count,[12],0 of 6
CC(=O)c1ccccc1Br,survivor count,[13],6 of 6
CCOCc1nc(NC(C)=O)nc(NC(C)=O)c1-c1ccc(Cl)cc1,survivor count,"dose: 300.0 mg/kg/injection, schedule: Q01DX001 (ip), vehicle: saline with Tween-80",0 of 6
[Si]c1ccc(-c2ccccc2)cc1,survivor count,[10],6 of 6
same,survivor count,[11],6 of 6
O=C(CCc1ccc(C(=O)Nc2ccc(C3=NCCCN3)cc2)cc1)Nc1ccc(C2=NCCCN2)cc1,T/C,"dose: 1.5 mg/kg/injection, schedule: Q01DX Z (ip), vehicle: water",138 % of control
same,T/C,"dose: 2.0 mg/kg/injection, schedule: Q01DX Z (ip), vehicle: water",131 % of control
same,survivor count,"dose: 16.0 mg/kg/injection, schedule: Q01DX Z (ip), vehicle: water",3 of 6
CC1(C)Cc2cccc(OC(=O)NO)c2O1,survivor count,"dose: 100.0 mg/kg/injection, schedule: Q01DX001 (ip), vehicle: Klucel (hydroxypropylcellulose) (HPC)",0 of 6
same,survivor count,"dose: 200.0 mg/kg/injection, schedule: Q01DX001 (ip), vehicle: Klucel (hydroxypropylcellulose) (HPC)",0 of 6
same,survivor count,"dose: 400.0 mg/kg/injection, schedule: Q01DX001 (ip), vehicle: Klucel (hydroxypropylcellulose) (HPC)",0 of 6
Clc1ccc(Cl)c(OCC2=NCCN2)c1,survivor count,"dose: 80.0 mg/kg/injection, schedule: Q04DX003 (ip), vehicle: Klucel (hydroxypropylcellulose) (HPC)",0 of 6
same,survivor count,[13],0 of 6
same,survivor count,[6],0 of 6
same,survivor count,[12],0 of 6
CCC1(C)CC(=O)NC(=O)C1.[Tl],survivor count,"dose: 12.5 mg/kg/injection, schedule: Q01DX009 (ip), vehicle: water",4 of 6
Cc1csc2n1cc1cccc[n+]12,survivor count,"dose: 100.0 mg/kg/injection, schedule: Q04DX002 (ip), vehicle: other",1 of 3
same,survivor count,"dose: 200.0 mg/kg/injection, schedule: Q04DX002 (ip), vehicle: other",1 of 3
same,survivor count,"dose: 400.0 mg/kg/injection, schedule: Q04DX002 (ip), vehicle: other",0 of 3
CN(N(P(c1ccccc1)c1ccccc1)P(c1ccccc1)c1ccccc1)P(c1ccccc1)c1ccccc1,survivor count,"dose: 200.0 mg/kg/injection, schedule: Q01DX001 (ip), vehicle: steroid suspending solution",4 of 4
O=C(NCc1ccco1)c1cccc(F)c1,survivor count,[6],4 of 6
same,survivor count,[12],0 of 6
CP(c1ccccc1)c1ccccc1,survivor count,[6],6 of 6
same,survivor count,"dose: 400.0 mg/kg/injection, schedule: Q04DX003 (ip), vehicle: Klucel (hydroxypropylcellulose) (HPC)",1 of 6
Cc1ccc(C(N)=O)cn1,T/C,[9],126 % of control
N#CC[CH2][Sn]([Br])([Br])[CH2]CC#N,survivor count,[14],3 of 3
same,survivor count,"dose: 50.0 mg/kg/injection, schedule: Q01DX009 (ip), vehicle: saline",3 of 3
same,survivor count,[15],1 of 3
same,survivor count,"dose: 200.0 mg/kg/injection, schedule: Q01DX009 (ip), vehicle: saline",0 of 3
OCCN1CCSC1=S,survivor count,[7],5 of 6
Nc1ncnc2c1c(C1=NCCN1)cn2C1OC(CO)C(O)C1O (stereo unspecified),T/C,[14],144 % of control
same,T/C,[16],125 % of control
same,survivor count,[16],6 of 6
same,T/C,[15],146 % of control
same,survivor count,"dose: 200.0 mg/kg/injection, schedule: Q01DX005 (ip), vehicle: saline",3 of 6
